Test [1] concerns the target mycobacterium membrane protein large 10 (MmpL10) of Mtb H37Rv (Mycobacterium tuberculosis H37Rv (endogenous)) (UniProt P9WJU0). Description: flow cytometry on cells; whole bacteria fixed in 4% PFA mixed with varying concentrations of cytokine overnight at 4 °C; pellets stained with anti-IFN-γ Brilliant Violet 421 (clone 4S.B3) or anti-TNF-α Alexa Fluor 700 (clone MAb11); only the binder purified.

Amino acid sequences for entries named in this document (tags omitted). Residues count along the entry.
UniProt P9WJU0: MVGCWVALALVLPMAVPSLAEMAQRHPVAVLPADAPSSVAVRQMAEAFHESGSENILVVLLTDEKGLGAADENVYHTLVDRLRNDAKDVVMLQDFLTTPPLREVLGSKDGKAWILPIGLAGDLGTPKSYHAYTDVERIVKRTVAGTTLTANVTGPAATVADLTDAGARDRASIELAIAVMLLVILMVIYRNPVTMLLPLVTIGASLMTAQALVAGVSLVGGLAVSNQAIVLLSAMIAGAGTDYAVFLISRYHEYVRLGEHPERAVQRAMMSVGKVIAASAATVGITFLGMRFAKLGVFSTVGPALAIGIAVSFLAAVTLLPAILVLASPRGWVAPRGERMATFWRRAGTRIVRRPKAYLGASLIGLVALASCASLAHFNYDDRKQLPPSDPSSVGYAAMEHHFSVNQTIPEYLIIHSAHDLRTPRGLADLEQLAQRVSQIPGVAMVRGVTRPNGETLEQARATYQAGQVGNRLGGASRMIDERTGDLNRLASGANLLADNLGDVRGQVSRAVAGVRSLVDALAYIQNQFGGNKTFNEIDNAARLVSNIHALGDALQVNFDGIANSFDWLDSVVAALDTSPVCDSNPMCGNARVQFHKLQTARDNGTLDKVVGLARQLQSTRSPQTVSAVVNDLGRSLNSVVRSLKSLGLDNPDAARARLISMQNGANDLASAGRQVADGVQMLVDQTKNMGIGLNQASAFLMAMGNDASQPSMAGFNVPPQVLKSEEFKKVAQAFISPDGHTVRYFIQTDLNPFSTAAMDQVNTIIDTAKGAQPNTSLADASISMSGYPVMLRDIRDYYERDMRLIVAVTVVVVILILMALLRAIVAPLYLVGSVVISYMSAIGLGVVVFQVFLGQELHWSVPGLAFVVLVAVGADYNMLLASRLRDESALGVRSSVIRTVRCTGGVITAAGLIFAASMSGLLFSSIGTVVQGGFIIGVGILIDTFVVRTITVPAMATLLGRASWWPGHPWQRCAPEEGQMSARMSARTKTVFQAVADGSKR
UniProt P01375, residues 77-233: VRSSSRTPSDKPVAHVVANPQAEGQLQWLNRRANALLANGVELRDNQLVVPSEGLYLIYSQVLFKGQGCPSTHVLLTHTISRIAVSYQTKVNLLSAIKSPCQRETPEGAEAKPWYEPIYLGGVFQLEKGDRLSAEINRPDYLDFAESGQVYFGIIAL
UniProt P01579, residues 24-161: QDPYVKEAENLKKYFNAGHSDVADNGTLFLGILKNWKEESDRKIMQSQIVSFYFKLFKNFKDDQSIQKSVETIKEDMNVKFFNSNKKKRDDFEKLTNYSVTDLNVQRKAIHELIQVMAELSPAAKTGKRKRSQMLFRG

Test [2] has the same target. Description: far-Western, overlay or dot blot; whole cell lysate separated on a non-denaturing polyacrylamide gel without SDS, transferred to PVDF, incubated with 5 μg IFN-γ overnight at 4 °C, detected with anti-human IFN-γ antibody; for Mtb H37Rv the matching band of the Coomassie-stained gel was analysed by LC-MS/MS; only the binder purified.

In article PMC9715692 one finds binding data, which are given here for 2 substances.

Results are given in words; binding and its absence hold for the method and conditions named. Some entries that bind do so weakly or less than the wild type.

In the case of “recombinant human TNF-α (from UniProt P01375 77-233) (ligand)”, the binding entry in test [1] is given as “no binding”.

Regarding “recombinant human Interferon-γ (from UniProt P01579 24-161) (ligand)”, the binding result in test [1] and in test [2] was “binds” throughout.
